Data: article PMC2219997
No constants are given. Whether binding was seen depends on the method and setting. For some assays here: Tags and fused reporters may be left off the sequences shown. Each block holds one binder with its values, some of them ahead of it.

Key:
[1] = molecular target: Etk-NM (Etk, an E. coli receptor tyrosine kinase, expressed without Mistic) (E. coli) (UniProt P38134); assay: AUC; sedimentation velocity, 40,000 rpm, 20°C, absorbance scans; Etk-NM extracted by 18 mM FC12, in 2 mM FC12; 0.8 OD in 50 mM NaCl, 20 mM Tris, pH 7.5; two samples, with (D2O, 1.0260 g/cm^3) and without (1.0105 g/cm^3) density adjustment; one-component finite element fit; both purified
[2] = molecular target: T1, EnvZ, a histidine kinase receptor from E. coli (E. coli), P0AEJ4; assay: AUC; sedimentation velocity, 40,000 rpm, 20°C, absorbance scans; EnvZ extracted by 20 mM DPh and exchanged with 0.5 mM DDM; 0.8 OD in 50 mM NaCl, 20 mM Tris, pH 7.5; one-component finite element fit, Tanford equation with the constraint 0 < Md/Mp < 2; both purified; conditions: remark: other sources report otherwise
T1 chain: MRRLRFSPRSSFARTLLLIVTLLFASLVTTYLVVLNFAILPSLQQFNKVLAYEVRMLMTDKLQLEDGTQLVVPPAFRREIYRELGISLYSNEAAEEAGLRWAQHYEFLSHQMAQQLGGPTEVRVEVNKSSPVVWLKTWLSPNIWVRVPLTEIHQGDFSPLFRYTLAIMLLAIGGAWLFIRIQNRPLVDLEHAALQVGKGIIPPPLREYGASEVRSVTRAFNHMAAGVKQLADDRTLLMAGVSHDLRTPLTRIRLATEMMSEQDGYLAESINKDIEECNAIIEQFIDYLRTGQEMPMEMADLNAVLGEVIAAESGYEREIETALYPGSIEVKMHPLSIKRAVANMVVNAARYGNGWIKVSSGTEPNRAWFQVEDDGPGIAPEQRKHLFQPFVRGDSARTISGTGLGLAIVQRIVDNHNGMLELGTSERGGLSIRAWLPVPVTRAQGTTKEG

binding [1]: no binding (tested: 0.8 OD)
B1: Etk-NM (Etk, an E. coli receptor tyrosine kinase, expressed without Mistic) (receptor, UniProt P38134 1-726)
chain: MTTKNMNTPPGSTQENEIDLLRLVGELWDHRKFIISVTALFTLIAVAYSLLSTPIYQADTLVQVEQKQGNAILSGLSDMIPNSSPESAPEIQLLQSRMILGKTIAELNLRDIVEQKYFPIVGRGWARLTKEKPGELAISWMHIPQLNGQDQQLTLTVGENGHYTLEGEEFTVNGMVGQRLEKDGVALTIADIKAKPGTQFVLSQRTELEAINALQETFTVSERSKESGMLELTMTGDDPQLITRILNSIANNYLQQNIARQAAQDSQSLEFLQRQLPEVRSELDQAEEKLNVYRQQRDSVDLNLEAKAVLEQIVNVDNQLNELTFREAEISQLYKKDHPTYRALLEKRQTLEQERKRLNKRVSAMPSTQQEVLRLSRDVEAGRAVYLQLLNRQQELSISKSSAIGNVRIIDPAVTQPQPVKPKKALNVVLGFILGLFISVGAVLARAMLRRGVEAPEQLEEHGISVYATIPMSEWLDKRTRLRKKNLFSNQQRHRTKNIPFLAVDNPADSAVEAVRALRTSLHFAMMETENNILMITGATPDSGKTFVSSTLAAVIAQSDQKVLFIDADLRRGYSHNLFTVSNEHGLSEYLAGKDELNKVIQHFGKGGFDVITRGQVPPNPSELLMRDRMRQLLEWANDHYDLVIVDTPPMLAVSDAAVVGRSVGTSLLVARFGLNTAKEVSLSMQRLEQAGVNIKGAILNGVIKRASTAYSYGYNYYGYSYSEKE

binding [2]: no binding (tested: 0.8 OD)
B2: EnvZ, a histidine kinase receptor from E. coli, P0AEJ4 1-450 (receptor)
chain: T1 chain
